# PubChem BioAssay AID1224826 | NIAID – 2016
# Assay: 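Genes that change LPS-induced Tnf promoter activity in mouse macrophages when knocked down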 (primary screen)
# Cells: RAW264.7 G9 macrophages from mouse bearing reporters for p65 (GFP) and the Tnf promoter (mCherry)
# Knock-down reagent: siRNA pool against mouse genes, 100 nM
# Timing: 16 h of LPS stimulation, after 2 days of siRNA transfection
# Challenge: bacterial lipopolysaccharide (Salmonella minnesota R595), 10 ng/ml
# Measured: 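Imaged Tnf reporter mCherry in nuclei, minus background, normalised per plate to the median and expressed as robust z-scores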
# Scale: Tnf reporter robust z-score: higher = stronger Tnf promoter reporter signal after LPS
# Hit rule: 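a well counts as active at a score of -1.3 or below (Tlr4 knock-down control median) or above 3 (raised signal); controls and wells holding fewer than 50 cells are excluded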
# Meaning of the calls: active = Tnf reporter clearly lowered or raised; inactive = no clear change in Tnf reporter
# Shown is one part, drawn at random, of about 17,000 reagents tested. About 1,110 of them (6.6%) were called active. 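Active means lowered or raised reporter signal; replicate intensities are raw and not normalised per plate.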 Entries without a mark were called inactive. Further read-outs or replicates are left out here.
gene symbol,Tnf reporter robust z-score,fewer than 50 cells in well
Ccpg1,0.51,enough cells in well
Hip1,-0.6,enough cells in well
Or6c216,2.67,enough cells in well
Use1,,fewer than 50 cells per well; well left out of calls
Eif2s3y,-0.18,enough cells in well
Atp5mj,,fewer than 50 cells per well; well left out of calls
Haus8,0.41,enough cells in well
Tceal5,0.12,enough cells in well
Pla2g7,-0.34,enough cells in well
Or13c7d,1.63,enough cells in well
Serpinb11,,fewer than 50 cells per well; well left out of calls
Rd3,,fewer than 50 cells per well; well left out of calls
Arfrp1,-0.9,enough cells in well
Osr1,-0.83,enough cells in well
Fcmr,-0.47,enough cells in well
Tmem11,-0.99,enough cells in well
Anpep,-0.69,enough cells in well
D930031A20Rik,2.21,enough cells in well
Atg12,-1.42 (active),enough cells in well
Homez,0.02,enough cells in well
Ank,,fewer than 50 cells per well; well left out of calls
Vpreb1b,-0.46,enough cells in well
Piwil2,0.56,enough cells in well
Sdc4,0.44,enough cells in well
Or2t48,-1.74 (active),enough cells in well
Mycbp2,,fewer than 50 cells per well; well left out of calls
Hsbp1,-0.11,enough cells in well
Aldh3a2,-0.17,enough cells in well
Bend5,,fewer than 50 cells per well; well left out of calls
Rtn4rl2,-0.51,enough cells in well
Angpt4,0.85,enough cells in well

In a second layout: entries from further up
{"gene symbol":"Atg12","Tnf reporter robust z-score":"-1.42 (active)","fewer than 50 cells in well":"enough cells in well"}
{"gene symbol":"Homez","Tnf reporter robust z-score":0.02,"fewer than 50 cells in well":"enough cells in well"}
{"gene symbol":"Ank","fewer than 50 cells in well":"fewer than 50 cells per well; well left out of calls"}
{"gene symbol":"Vpreb1b","Tnf reporter robust z-score":-0.46,"fewer than 50 cells in well":"enough cells in well"}
{"gene symbol":"Piwil2","Tnf reporter robust z-score":0.56,"fewer than 50 cells in well":"enough cells in well"}

Continued:
gene symbol,Tnf reporter robust z-score,fewer than 50 cells in well
Pomgnt2,0.33,enough cells in well
Morn4,2.1,enough cells in well
Cts3,-0.5,enough cells in well
Rdh16,0.36,enough cells in well
Styx,-0.07,enough cells in well
Misp,-0.31,enough cells in well
Thbd,-0.2,enough cells in well
Klk1b27,-0.55,enough cells in well
Ucma,0.61,enough cells in well
Cela3b,0.97,enough cells in well
1700001G17Rik,-1.6 (active),enough cells in well
Or5ak23,-0.67,enough cells in well
Extl3,0.59,enough cells in well
Dvl2,0.09,enough cells in well
Arg1,,fewer than 50 cells per well; well left out of calls
Ikbkb,-1.11,enough cells in well
Slc25a45,-0.66,enough cells in well
Vmn1r171,-1.19,enough cells in well
Pip5k1b,-0.55,enough cells in well
Eef1akmt1,1.62,enough cells in well
Polr3e,3.32 (active),enough cells in well
Coro1b,-0.25,enough cells in well
Rasa2,0.35,enough cells in well
Cav3,-0.86,enough cells in well
Lbh,2.06,enough cells in well
Vmn1r33,-0.77,enough cells in well
Nadk,0.91,enough cells in well
